PubChem BioAssay AID652259 – Drosophila RNAi Screening Center, 2013

Purpose: 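Knock-downs that push a Wingless-driven reporter up or down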 (primary screen)
System: Drosophila clone 8 imaginal disc epithelial cells
Reagents: long dsRNA against Drosophila genes
Treatment: pathway stimulated by co-transfected Wingless expression plasmid
Detection: 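Firefly luciferase from a tcf-site Wingless reporter, measured alongside co-transfected Renilla luciferase that tracks transfection; pathway stimulated by a Wingless plasmid; the firefly-to-Renilla ratio is not deposited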
Direction: firefly reporter light: higher = more Wg reporter light, before normalisation; Renilla control light: higher = more transfected or surviving cells
Rule for the call: 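a knock-down is a candidate when at least two out of four statistical tests show it departing from its plate mean; one test alone signals a weak candidate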
Meaning of the calls: active = candidate regulator (raises or lowers reporter); inactive = not a candidate
The screen tested about 22,000 reagents; below is a random part of those that have a named target and a result. Of all reagents, 233 (1.1%) got an active call. 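Light values are raw, unnormalised plate reads; the ratio scores behind the reporter calls were not deposited.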 Reagents against one gene are numbered here. The record does not give: the amount of reagent, the time to read-out, the dose of the treatment.

After knock-down of CG32024, the screen gave firefly reporter light, replicate 1 = 4.84e5; firefly reporter light, replicate 2 = 4.77e5; Renilla control light, replicate 1 = 1.82e5; Renilla control light, replicate 2 = 2.03e5; inactive.
Against Gr28b (Gustatory receptor 28b) #1, the values are firefly reporter light, replicate 1 = 3074; firefly reporter light, replicate 2 = 7144; Renilla control light, replicate 1 = 882; Renilla control light, replicate 2 = 2497; inactive.
For Gr28b (Gustatory receptor 28b) #2, the values are firefly reporter light, replicate 1 = 2125; firefly reporter light, replicate 2 = 4826; Renilla control light, replicate 1 = 659; Renilla control light, replicate 2 = 1717; inactive.
w-cup (world cup) scored firefly reporter light, replicate 1 = 4211; firefly reporter light, replicate 2 = 8277; Renilla control light, replicate 1 = 1362; Renilla control light, replicate 2 = 2549; inactive.
For Fuca (alpha-L-fucosidase) the deposit lists firefly reporter light, replicate 1 = 6348; Renilla control light, replicate 1 = 2280; inactive.
Knock-down of Tbp (TATA binding protein) resulted in: reporter change call, replicate 1 = Wg reporter activity lowered; firefly reporter light, replicate 1 = 797; firefly reporter light, replicate 2 = 3044; Renilla control light, replicate 1 = 657; Renilla control light, replicate 2 = 2535; active.
Silencing of CG12299 resulted in: reporter change call, replicate 1 = Wg reporter activity raised; firefly reporter light, replicate 1 = 25568; Renilla control light, replicate 1 = 2164; active.
Against CG30056, the values are firefly reporter light, replicate 1 = 3.12e5; firefly reporter light, replicate 2 = 3.42e5; Renilla control light, replicate 1 = 63470; Renilla control light, replicate 2 = 53689; inactive.
For CG6790, the entry reads firefly reporter light, replicate 1 = 5501; Renilla control light, replicate 1 = 2984; inactive.
For CG6923, the entry reads firefly reporter light, replicate 1 = 5386; Renilla control light, replicate 1 = 2162; inactive.
For Sod1 (Superoxide dismutase 1), the values are firefly reporter light, replicate 1 = 6653; Renilla control light, replicate 1 = 2812; inactive.
CG11509 (retired record) scored firefly reporter light, replicate 1 = 3940; firefly reporter light, replicate 2 = 12693; Renilla control light, replicate 1 = 1959; Renilla control light, replicate 2 = 4176; inactive.
For CG10126, the values are firefly reporter light, replicate 1 = 8205; Renilla control light, replicate 1 = 3643; inactive.
Against nudE #1 the deposit lists firefly reporter light, replicate 1 = 6282; Renilla control light, replicate 1 = 2402; inactive.
Against nudE #2 the deposit lists firefly reporter light, replicate 1 = 6571; Renilla control light, replicate 1 = 3936; inactive.
With knock-down of Cpr65Ec (Cuticular protein 65Ec), the record shows firefly reporter light, replicate 1 = 1770; firefly reporter light, replicate 2 = 7941; Renilla control light, replicate 1 = 1549; Renilla control light, replicate 2 = 2548; inactive.
With knock-down of Dcr-1 (Dicer-1), the screen gave firefly reporter light, replicate 1 = 4219; firefly reporter light, replicate 2 = 7734; Renilla control light, replicate 1 = 1809; Renilla control light, replicate 2 = 2432; inactive.
After knock-down of Nf-YB (Nuclear factor Y-box B) the results were firefly reporter light, replicate 1 = 2067; firefly reporter light, replicate 2 = 8176; Renilla control light, replicate 1 = 688; Renilla control light, replicate 2 = 3068; inactive.
After knock-down of term (terminus), the screen gave firefly reporter light, replicate 1 = 4.12e5; firefly reporter light, replicate 2 = 4.80e5; Renilla control light, replicate 1 = 2.27e5; Renilla control light, replicate 2 = 1.80e5; inactive.
Against CG10177, the entry reads firefly reporter light, replicate 1 = 10300; Renilla control light, replicate 1 = 9696; inactive.
Nadk1b (NAD kinase 1b) #1 gave firefly reporter light, replicate 1 = 23948; Renilla control light, replicate 1 = 19847; inactive.
Silencing of Nadk1b (NAD kinase 1b) #2 gave: firefly reporter light, replicate 1 = 15789; Renilla control light, replicate 1 = 4754; inactive.
Nadk1b (NAD kinase 1b) #3 scored firefly reporter light, replicate 1 = 4987; Renilla control light, replicate 1 = 1722; inactive.
Knock-down of CG6415 resulted in: firefly reporter light, replicate 1 = 6906; Renilla control light, replicate 1 = 2075; inactive.
For MsrA (Methionine sulfoxide reductase A) the deposit lists firefly reporter light, replicate 1 = 8841; Renilla control light, replicate 1 = 3553; inactive.
